Data source: PubChem BioAssay AID1259308 (NCATS, 2017)
This is a random part of about 59,000 reagents tested. About 1,510 of all reagents (2.6%) count as active. 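Calls use total luciferase alone and ignore viability, so some active siRNAs may act by altering cell number.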 Entries without a mark were called inactive. Reagents against one gene are numbered here. Further read-outs or replicates are left out here. Reagent sequences are not shown.

- Screen: 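Knock-downs that increase output of a recombinant reporter protein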 (primary screen)
- System: human HEK293 embryonic kidney cells stably expressing firefly luciferase (HEK-CMV-Luc2-Hygro)
- Knock-down reagent: single siRNA against human genes, 0.8 pmol siRNA per well
- Time to read-out: 72 h
- Measurement: 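Luciferase light (ONE-Glo) measured on one replicate plate set and viability (CellTiter-Glo) on the other, scaled to a negative control siRNA, with robust z-scores and luciferase per cell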
- Scale: total luciferase, z-score and total luciferase, % of control: higher = more reporter protein produced
- Active means: 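Active when the median/MAD z-score for overall luciferase is greater than 3; a gene was taken forward for validation with new siRNAs if at least two of its three siRNAs passed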
- Meaning of the calls: active = raised luciferase; inactive = no rise

SLC39A4 #1
- total luciferase, z-score: -0.145
- total luciferase, % of control: 79

SLC39A4 #2
- total luciferase, z-score: -0.329
- total luciferase, % of control: 75.3

SLC39A4 #3
- total luciferase, z-score: -0.279
- total luciferase, % of control: 76.3

OR2T29 #1
- total luciferase, z-score: 5.84 (active)
- total luciferase, % of control: 198

OR2T29 #2
- total luciferase, z-score: -0.167
- total luciferase, % of control: 78.6

OR2T29 #3
- total luciferase, z-score: 2.47
- total luciferase, % of control: 131

REXO2 #1
- total luciferase, z-score: -0.0883
- total luciferase, % of control: 80.1

REXO2 #2
- total luciferase, z-score: 0.0522
- total luciferase, % of control: 82.9

REXO2 #3
- total luciferase, z-score: 0.202
- total luciferase, % of control: 85.9

GFI1B #1
- total luciferase, z-score: 0.567
- total luciferase, % of control: 93.2

GFI1B #2
- total luciferase, z-score: -1.15
- total luciferase, % of control: 59

GFI1B #3
- total luciferase, z-score: -1.3
- total luciferase, % of control: 55.9

Active calls (from the list above):
OR2T29 #1
- total luciferase, z-score: 5.84 (active)
- total luciferase, % of control: 198
